The results in this text go back to PubChem BioAssay AID2810 (NMMLSC, 2010).

The assay is described as follows: modulators of CD8 T cell-vesicle binding, confirmation, cherry-picked primary hits, two concentrations (AID 2810).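 On all read-outs here: lower values mean blocking of vesicle binding.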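 On percent response (vesicle binding): ratio of mean FL2 vesicle stain of CD8+ cells to that row's control.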 The settings on record: 2C CD8+ T cell-vesicle binding, flow cytometry; for double positive events: CD8+/vesicle+ events.
Where [1] appears, read: at 15.4 µM, stronger effect = lower value.

The list shows a part of the results. Further columns of the screen follow, without active or inactive calls.

For the compound `CCC(=O)Oc1ccc2ccccc2c1CNC(=O)c1ccccc1`, for the setting “at 7.7 µM”, the double positive events turned out to be 9.9% and the percent response (vesicle binding) was determined as 133%. Under setting [1], the double positive events was found to be 18.3%.
Where the note is “at 7.7 µM”, `Fc1cc(F)c(NC(=S)N2CCOCC2)c(F)c1` registered a double positive events of 32.6% and a percent response (vesicle binding) of 278%. In addition, the double positive events under setting [1] came out at 10.4%.
Consider `O=C(CCc1ccccc1)N/N=C/c1cc(Br)ccc1O`, for which, under “at 7.7 µM”, the double positive events worked out at 17.2% and the percent response (vesicle binding) worked out at 222%. The same compound displayed a double positive events under setting [1] of 25.8%.
The matching figures for `C/C(=N\NC(=O)c1ccco1)c1cc2ccccc2o1`: 10.1%, 451% and 19.7%.
With `Cn1c(=O)[nH]c(=O)c2c1nc(NCCCn1ccnc1)n2Cc1cccc(Br)c1`, the double positive events runs as follows: (at 7.7 µM) 9.3%; under setting [1], 17.2%. The percent response (vesicle binding) (at 7.7 µM) was 348%.
The matching figures for `Cc1ccc(C)c(-n2sc3ccc(F)cc3c2=O)c1`: 3.2%, 12.6% and 168%.
Turning to `c1ccc(C(c2nnnn2C2CCCCC2)N2CCc3ccccc3C2)nc1` (configuration not stated), for the setting “at 7.7 µM”, the double positive events was 20.3% and the percent response (vesicle binding) came out at 204%. Further, under setting [1], the double positive events turned out to be 21.1%.
Compound `CCc1ccccc1NNC(=O)c1snnc1C` had a double positive events (at 7.7 µM) of 27.3% and a double positive events under setting [1] of 21%.
Where the note is “at 7.7 µM”, `Cc1ccc(-c2noc(Cn3cc(S(=O)(=O)N4CCCC4)ccc3=O)n2)cc1` registered a double positive events of 38.7% and a percent response (vesicle binding) of 326%. The same compound returned a double positive events under setting [1] of 9.6%.
The matching figures for `O=C(NC1CCCC1)C(c1ccc(Cl)cc1)N(Cc1ccc(F)cc1)C(=O)CCl` (configuration not stated): 11.5%, 515% and 7.7%.
As to `CCc1ccc(C(=O)N2CCCN(C)CC2)s1`, where the note is “at 7.7 µM”, the double positive events worked out at 6.7% and the percent response (vesicle binding) is 314%. In addition, the double positive events under setting [1] worked out at 19.6%.
The matching figures for `COCCN(C(=O)CNC(=O)c1cccs1)C(C(=O)NC1CCCC1)c1cccs1` (configuration not stated): 12.4%, 207% and 23.6%.
`Cc1ccc(OCc2cc(C(=O)N(CCO)Cc3cccs3)no2)cc1C`: where the note is “at 7.7 µM”, the double positive events came out at 14.5% and the percent response (vesicle binding) was determined as 95%. The double positive events under setting [1] worked out at 29.1%.
For `CN(CC(=O)Nc1ccccc1Cl)C(=O)COC(=O)c1cc(S(=O)(=O)N(C)C)ccc1N1CCCC1`, for the setting “at 7.7 µM”, the double positive events was 10.6% and the percent response (vesicle binding) was 138%. Also, under setting [1], the double positive events came to 18.8%.
Taken in the same sequence, the figures for `CCc1ccc(C(=O)NC(C(=O)NCC2CCCO2)C(C)C)cc1` (configuration not stated) were 31.9%, 296% and 11.6%.
Taken in the same sequence, the figures for `CN(C)S(=O)(=O)c1cccc(C(=O)Nc2cc3c(cc2C(=O)O)OCCCO3)c1` were 9.8%, 116% and 24.2%.
The matching figures for `CCN(CC)C(=O)N1CCN(S(=O)(=O)c2ccc(C)cc2)CC1`: 17.1%, 184% and 19.1%.
Under “at 7.7 µM”, `O=C1/C(=C\c2ccc3ccccc3c2)CCCc2ccccc21` had a double positive events of 8.9% and a percent response (vesicle binding) of 172%. Further, under setting [1], the double positive events worked out at 26.1%.
Taken in the same sequence, the figures for `CCCn1c(SCC(=O)Nc2ccc(Cl)cc2)n[nH]c1=O` were 43.3%, 336% and 13.3%.
Turning to `Oc1[nH]c2ccccc2c1/C=N/N1CCCCC1`, for the setting “at 7.7 µM”, the double positive events was 29.8% and the percent response (vesicle binding) amounted to 199%. The same compound yielded a double positive events under setting [1] of 20.1%.
The matching figures for `O=C(C[n+]1ccc2ccccc2c1)Nc1cc(C(F)(F)F)ccc1Cl`: 30.8%, 206% and 19.3%.
The matching figures for `CCCCn1c(N)c(N(CCOC)C(=O)C2CC(=O)N(c3ccc(CC)cc3)C2)c(=O)[nH]c1=O` (configuration not stated): 24.5%, 228% and 34.9%.
Taken in the same sequence, the figures for `CC(C)NC(=O)C1CCN(C(=O)N(C)C)CC1` were 8.9%, 143% and 31.4%.
`Cc1ccc(C)c(-n2c3nc(=O)[nH]c(=O)c-3cc3cc([N+](=O)[O-])ccc32)c1`: the double positive events was 6.2% (at 7.7 µM) and 14.4% under setting [1]. The compound also displayed a percent response (vesicle binding) (at 7.7 µM) of 325%.
Regarding `Cc1cc(C)nc(NC(=O)c2ccc([N+](=O)[O-])o2)n1`, the double positive events reads like this: (at 7.7 µM) 23.8%; under setting [1], 22.3%. Further, where the note is “at 7.7 µM”, the percent response (vesicle binding) is 371%.
Taken in the same sequence, the figures for `Cc1cc(OCC(=O)N(C)c2c(N)n(Cc3ccccc3)c(=O)[nH]c2=O)c(C(C)C)cc1Cl` were 13.3%, 24.8% and 181%.
